This is one part of the list.
Tests used:
Assay in all cases: log2 fold change, soluble protein after heating vs DMSO (PISA); higher = thermal stabilisation; K562 cells, 10 uM, 30 min; active = over 0.2 and 3.5 SD of the protein, either way, in both replicates (recomputed)
[1] = compound: C1=CC=C(C=C1)[C@H](COC2=CC3=C(C=C2)NC(=O)N3)NC(=O)C4=CC=CN(C4=O)CC5=CC(=C(C=C5)F)F
Outline: (§1)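 Soluble protein was defined as the supernatant after 21,000xg for 90 min. It came from K562 cells at 2×10^6 cells/mL given 10 μM compound for 30 min, heated in aliquots for 3 min across 48°C-58°C, pooled, and extracted in PBS with 0.5% NP-40 at 4°C, and was quantified by TMTpro 16plex LC-MS/MS with equalised channel sums. Thermal stability against control samples, from duplicates, is reported as log2 fold change.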

Chains of the proteins cited; added tags and fusions are not shown. Lines headed by an entry give the natural chain unless they say otherwise; changes in a name come on top.
UniProt P10301: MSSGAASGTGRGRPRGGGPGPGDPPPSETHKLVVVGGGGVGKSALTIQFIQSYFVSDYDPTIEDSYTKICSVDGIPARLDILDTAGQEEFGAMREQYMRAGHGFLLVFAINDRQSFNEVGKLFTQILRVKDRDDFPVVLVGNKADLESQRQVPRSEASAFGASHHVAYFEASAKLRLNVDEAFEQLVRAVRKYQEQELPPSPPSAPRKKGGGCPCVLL
UniProt P05387, whole entry, looked up: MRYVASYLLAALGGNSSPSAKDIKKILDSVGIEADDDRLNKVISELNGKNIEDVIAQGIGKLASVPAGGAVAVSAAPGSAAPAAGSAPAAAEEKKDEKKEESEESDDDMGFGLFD
UniProt Q5VZM2, whole entry, looked up: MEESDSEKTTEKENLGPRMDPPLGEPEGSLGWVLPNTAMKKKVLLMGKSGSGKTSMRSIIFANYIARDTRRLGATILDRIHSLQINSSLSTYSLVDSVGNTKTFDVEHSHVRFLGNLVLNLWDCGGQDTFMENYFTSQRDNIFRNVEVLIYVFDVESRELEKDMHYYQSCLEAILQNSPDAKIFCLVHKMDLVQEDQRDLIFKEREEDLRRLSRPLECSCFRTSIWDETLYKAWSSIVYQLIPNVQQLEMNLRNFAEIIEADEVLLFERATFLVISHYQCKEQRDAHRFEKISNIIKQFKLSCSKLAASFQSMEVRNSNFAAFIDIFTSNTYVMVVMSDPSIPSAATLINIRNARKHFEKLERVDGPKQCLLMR
UniProt Q99942: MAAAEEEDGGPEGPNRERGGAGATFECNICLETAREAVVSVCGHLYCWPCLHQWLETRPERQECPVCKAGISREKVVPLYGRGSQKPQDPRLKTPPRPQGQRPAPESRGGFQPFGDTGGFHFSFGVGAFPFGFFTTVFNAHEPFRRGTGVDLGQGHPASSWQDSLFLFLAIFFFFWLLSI

[2] = compound: CC1=C(SC2=C1C(=N[C@H](C3=NN=C(N32)C)CC(=O)N)C4=CC=C(C=C4)Cl)C
Outline: as §1

[3] = compound: CC1=C2C(=CC=C1)N=C(N(C2=O)C3=CC=CC=C3C)CN4C=NC5=C(N=CN=C54)N
Outline: as §1

[4] = compound: Cc1sc2c(c1C)C(c1ccc(Cl)cc1)=N[C@@H](CC(=O)OC(C)(C)C)c1nnc(C)n1-2
Outline: as §1

[5] = compound: c1ccc([C@@H]2C[C@H]2NC2CCNCC2)cc1
Outline: as §1

Measured: log2 fold change

RPS15A (UniProt P62244)
inactive: [1] 0.11 | [2] -0.296 | [3] -0.258 | [4] 0.187 | [5] 0.004

RRAS (UniProt P10301)
inactive: [1] 0.039 | [2] 0.004 | [3] 0.034 | [4] -0.012 | [5] 0.029

RPL7 (UniProt P18124)
inactive: [1] 0.293 | [2] -0.502 | [3] -0.694 | [4] 0.345 | [5] 0

RPS5 (UniProt P46782)
inactive: [1] 0.049 | [2] -0.144 | [3] -0.214 | [4] 0.082 | [5] 0.001

RPLP2 (UniProt P05387)
inactive: [1] 0.142 | [2] -0.389 | [3] -0.571 | [4] 0.19 | [5] 0.031

RPS28 (UniProt P62857)
inactive: [1] -0.022 | [2] -0.184 | [3] -0.081 | [4] 0.063 | [5] -0.001

RRAGB (UniProt Q5VZM2)
inactive: [1] 0.046 | [2] -0.028 | [3] -0.088 | [4] -0.01 | [5] 0.02

RPL35A (UniProt P18077)
inactive: [1] 0.272 | [2] -0.548 | [3] -0.619 | [4] 0.371 | [5] -0.001

RNF5 (UniProt Q99942)
inactive: [1] -0.078 | [2] 0.025 | [3] 0.072 | [4] -0.05 | [5] -0.012

Reference: the supplement of paper PMC10849652
